# Measured values as given in the supplement of paper PMC8728848.
# This is one part of the list.
# B1: OS9-MRH (Homo sapiens), Q13438 (protein)
# chain: IPELLSPMRDAPCLLKTKDWWTYEFCYGRHIQQYHMEDSEIKGEVLYLGYYQSAFDWDDETAKASKQHRLKRYHSQTYGNGSKCDLNGRPREAEVRFLCDEGAGISGDYIDRVDEPLSCSYVLTIRTPRLCPHPLLRPPPSAAPQAI
# Tests used:
# Experiment in all cases: glycan array binding signal (z-score within array); higher = stronger binding
# Conditions in all cases: glycan notation: IUPAC condensed, linker removed
# [1] = molecular target: Gal(b1-4)GlcNAc(b1-3)Gal(b1-4)GlcNAc(b1-3)[Gal(b1-4)GlcNAc(b1-3)Gal(b1-4)GlcNAc(b1-6)]GalNAc
# Procedure, shortened: (§1)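 The binding signal is a Z-score computed within each array and averaged over linkers. Arrays of the same protein sequence at different concentrations or buffers were also averaged together. Data originate from 3228 arrays in the Consortium for Functional Glycomics database, kept only where the protein sequence was available.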
# [2] = molecular target: Gal(b1-4)GlcNAc(b1-3)Gal(b1-4)GlcNAc(b1-6)[Gal(b1-3)]GalNAc
# Procedure, shortened: as §1
# [3] = molecular target: Gal(b1-4)GlcNAc(b1-3)Gal(b1-4)[Fuc(a1-3)]GlcNAc(b1-3)Gal(b1-4)[Fuc(a1-3)]GlcNAc
# Procedure, shortened: as §1
# [4] = molecular target: Gal(b1-4)GlcNAc(b1-3)GalNAc
# Procedure, shortened: as §1
# [5] = molecular target: Gal(b1-4)GlcNAc(b1-3)[Fuc(a1-3)GlcNAc(b1-6)]Gal(b1-4)Glc
# Procedure, shortened: as §1
# [6] = molecular target: Gal(b1-4)GlcNAc(b1-3)[Gal(b1-4)GlcNAc(b1-6)]Gal(b1-4)GlcNAc
# Procedure, shortened: as §1
# [7] = molecular target: Gal(b1-4)GlcNAc(b1-3)[GlcNAc(b1-6)]Gal(b1-4)GlcNAc
# Procedure, shortened: as §1
# [8] = molecular target: Gal(b1-4)GlcNAc(b1-6)Gal(b1-4)GlcNAc
# Procedure, shortened: as §1
# [9] = molecular target: Gal(b1-4)GlcNAc(b1-6)GalNAc
# Procedure, shortened: as §1
# [10] = molecular target: Gal(b1-4)GlcNAc(b1-6)[Gal(b1-3)]GalNAc
# Procedure, shortened: as §1
# [11] = molecular target: Gal(b1-4)GlcNAc(b1-6)[Gal(b1-4)GlcNAc(b1-3)]GalNAc
# Procedure, shortened: as §1
# [12] = molecular target: Gal(b1-4)GlcNAc6P
# Procedure, shortened: as §1
# [13] = molecular target: Gal(b1-6)Gal
# Procedure, shortened: as §1
# [14] = molecular target: Gal3S(b1-3)GalNAc
# Procedure, shortened: as §1
# [15] = molecular target: Gal3S(b1-3)GlcNAc
# Procedure, shortened: as §1
# [16] = molecular target: Gal3S(b1-3)[Fuc(a1-4)]GlcNAc
# Procedure, shortened: as §1
# [17] = molecular target: Gal3S(b1-4)Glc
# Procedure, shortened: as §1
# [18] = molecular target: Gal3S(b1-4)Glc6S
# Procedure, shortened: as §1
# [19] = molecular target: Gal3S(b1-4)GlcNAc
# Procedure, shortened: as §1
# [20] = molecular target: Gal3S(b1-4)[Fuc(a1-3)]Glc6S
# Procedure, shortened: as §1
# [21] = molecular target: Gal3S(b1-4)[Fuc(a1-3)]GlcNAc
# Procedure, shortened: as §1
# [22] = molecular target: Gal3S(b1-4)[Fuc(a1-3)]GlcNAc6S
# Procedure, shortened: as §1
# [23] = molecular target: Gal3S4S(b1-4)GlcNAc
# Procedure, shortened: as §1
# [24] = molecular target: Gal3S6S(b1-4)GlcNAc
# Procedure, shortened: as §1
# [25] = molecular target: Gal3S6S(b1-4)GlcNAc6S
# Procedure, shortened: as §1
# [26] = molecular target: Gal4S(b1-4)GlcNAc
# Procedure, shortened: as §1
# [27] = molecular target: Gal4S6S(b1-4)GlcNAc
# Procedure, shortened: as §1
# [28] = molecular target: Gal6P(b1-4)GlcNAc
# Procedure, shortened: as §1
# [29] = molecular target: Gal6S(b1-3)GlcNAc
# Procedure, shortened: as §1
# [30] = molecular target: Gal6S(b1-3)GlcNAc6S
# Procedure, shortened: as §1
# [31] = molecular target: Gal6S(b1-4)Glc
# Procedure, shortened: as §1
# [32] = molecular target: Gal6S(b1-4)Glc6S
# Procedure, shortened: as §1
# [33] = molecular target: Gal6S(b1-4)GlcNAc
# Procedure, shortened: as §1
# [34] = molecular target: Gal6S(b1-4)GlcNAc6S
# Procedure, shortened: as §1
# [35] = molecular target: GalNAc(a1-3)Gal
# Procedure, shortened: as §1
# [36] = molecular target: GalNAc(a1-3)GalNAc
# Procedure, shortened: as §1
# [37] = molecular target: GalNAc(a1-3)GalNAc(b1-3)Gal(a1-4)Gal(b1-4)Glc
# Procedure, shortened: as §1
# [38] = molecular target: GalNAc(a1-3)GalNAc(b1-3)Gal(a1-4)Gal(b1-4)GlcNAc
# Procedure, shortened: as §1
# [39] = molecular target: GalNAc(b1-3)Gal
# Procedure, shortened: as §1
# [40] = molecular target: GalNAc(b1-3)Gal(a1-4)Gal(b1-4)GlcNAc
# Procedure, shortened: as §1
# [41] = molecular target: GalNAc(b1-3)Gal(a1-4)Gal(b1-4)GlcNAc(b1-3)Gal(b1-4)Glc
# Procedure, shortened: as §1
# [42] = molecular target: GalNAc(b1-3)Gal(a1-6)Gal(b1-4)Glc
# Procedure, shortened: as §1
# [43] = molecular target: GalNAc(b1-3)GalNAc
# Procedure, shortened: as §1
# [44] = molecular target: GalNAc(b1-3)GlcNAc
# Procedure, shortened: as §1
# [45] = molecular target: GalNAc(b1-4)Gal(b1-4)Glc
# Procedure, shortened: as §1
binder,measurement,setting,value
B1,glycan array binding signal (z-score),[1],0.074
same,glycan array binding signal (z-score),[2],-0.064
same,glycan array binding signal (z-score),[3],-0.347
same,glycan array binding signal (z-score),[4],0.542
same,glycan array binding signal (z-score),[5],-0.238
same,glycan array binding signal (z-score),[6],1.16
same,glycan array binding signal (z-score),[7],0.746
same,glycan array binding signal (z-score),[8],-1.58
same,glycan array binding signal (z-score),[9],0.519
same,glycan array binding signal (z-score),[10],-0.075
same,glycan array binding signal (z-score),[11],-0.694
same,glycan array binding signal (z-score),[12],-1.18
same,glycan array binding signal (z-score),[13],1.66
same,glycan array binding signal (z-score),[14],-0.015
same,glycan array binding signal (z-score),[15],1.11
same,glycan array binding signal (z-score),[16],-0.283
same,glycan array binding signal (z-score),[17],1.13
same,glycan array binding signal (z-score),[18],0.391
same,glycan array binding signal (z-score),[19],-0.163
same,glycan array binding signal (z-score),[20],1.02
same,glycan array binding signal (z-score),[21],-0.296
same,glycan array binding signal (z-score),[22],1.2
same,glycan array binding signal (z-score),[23],-1.28
same,glycan array binding signal (z-score),[24],-0.673
same,glycan array binding signal (z-score),[25],0.711
same,glycan array binding signal (z-score),[26],-0.412
same,glycan array binding signal (z-score),[27],1.93
same,glycan array binding signal (z-score),[28],-0.224
same,glycan array binding signal (z-score),[29],-1.94
same,glycan array binding signal (z-score),[30],-0.649
same,glycan array binding signal (z-score),[31],-0.643
same,glycan array binding signal (z-score),[32],-1.06
same,glycan array binding signal (z-score),[33],-0.312
same,glycan array binding signal (z-score),[34],-1.06
same,glycan array binding signal (z-score),[35],2.81
same,glycan array binding signal (z-score),[36],3.57
same,glycan array binding signal (z-score),[37],0.581
same,glycan array binding signal (z-score),[38],-0.426
same,glycan array binding signal (z-score),[39],1.16
same,glycan array binding signal (z-score),[40],0.116
same,glycan array binding signal (z-score),[41],-1.33
same,glycan array binding signal (z-score),[42],-0.567
same,glycan array binding signal (z-score),[43],-1.33
same,glycan array binding signal (z-score),[44],-0.123
same,glycan array binding signal (z-score),[45],-0.025

# Part of the list above in a different format:
binder | measurement | setting | value
B1 | glycan array binding signal (z-score) | [11] | -0.694
same | glycan array binding signal (z-score) | [14] | -0.015
same | glycan array binding signal (z-score) | [18] | 0.391
same | glycan array binding signal (z-score) | [25] | 0.711
